# Test results reported in paper PMC8270999.
# Results are given in words; binding and its absence hold for the method and conditions named. In cells and extracts the contact can be indirect. Here binding means that the protein was enriched with, or labelled near, the bait; the list need not be complete. Sequences can lack the tags named with a protein.
# B1: endogenous NF-X1 (enzyme, UniProt Q12986 1-1120)
# chain: MAEAPPVSGTFKFNTDAAEFIPQEKKNSGLNCGTQRRLDSNRIGRRNYSSPPPCHLSRQVPYDEISAVHQHSYHPSGSKPKSQQTSFQSSPCNKSPKSHGLQNQPWQKLRNEKHHIRVKKAQSLAEQTSDTAGLESSTRSESGTDLREHSPSESEKEVVGADPRGAKPKKATQFVYSYGRGPKVKGKLKCEWSNRTTPKPEDAGPESTKPVGVFHPDSSEASSRKGVLDGYGARRNEQRRYPQKRPPWEVEGARPRPGRNPPKQEGHRHTNAGHRNNMGPIPKDDLNERPAKSTCDSENLAVINKSSRRVDQEKCTVRRQDPQVVSPFSRGKQNHVLKNVETHTGSLIEQLTTEKYECMVCCELVRVTAPVWSCQSCYHVFHLNCIKKWARSPASQADGQSGWRCPACQNVSAHVPNTYTCFCGKVKNPEWSRNEIPHSCGEVCRKKQPGQDCPHSCNLLCHPGPCPPCPAFMTKTCECGRTRHTVRCGQAVSVHCSNPCENILNCGQHQCAELCHGGQCQPCQIILNQVCYCGSTSRDVLCGTDVGKSDGFGDFSCLKICGKDLKCGNHTCSQVCHPQPCQQCPRLPQLVRCCPCGQTPLSQLLELGSSSRKTCMDPVPSCGKVCGKPLPCGSLDFIHTCEKLCHEGDCGPCSRTSVISCRCSFRTKELPCTSLKSEDATFMCDKRCNKKRLCGRHKCNEICCVDKEHKCPLICGRKLRCGLHRCEEPCHRGNCQTCWQASFDELTCHCGASVIYPPVPCGTRPPECTQTCARVHECDHPVYHSCHSEEKCPPCTFLTQKWCMGKHEFRSNIPCHLVDISCGLPCSATLPCGMHKCQRLCHKGECLVDEPCKQPCTTPRADCGHPCMAPCHTSSPCPVTACKAKVELQCECGRRKEMVICSEASSTYQRIAAISMASKITDMQLGGSVEISKLITKKEVHQARLECDEECSALERKKRLAEAFHISEDSDPFNIRSSGSKFSDSLKEDARKDLKFVSDVEKEMETLVEAVNKGKNSKKSHSFPPMNRDHRRIIHDLAQVYGLESVSYDSEPKRNVVVTAIRGKSVCPPTTLTGVLEREMQARPPPPIPHHRHQSDKNPGSSNLQKITKEPIIDYFDVQD
# Biological target: T1, HA-tagged human GLDC (human) (UniProt P23378)
# T1 sequence: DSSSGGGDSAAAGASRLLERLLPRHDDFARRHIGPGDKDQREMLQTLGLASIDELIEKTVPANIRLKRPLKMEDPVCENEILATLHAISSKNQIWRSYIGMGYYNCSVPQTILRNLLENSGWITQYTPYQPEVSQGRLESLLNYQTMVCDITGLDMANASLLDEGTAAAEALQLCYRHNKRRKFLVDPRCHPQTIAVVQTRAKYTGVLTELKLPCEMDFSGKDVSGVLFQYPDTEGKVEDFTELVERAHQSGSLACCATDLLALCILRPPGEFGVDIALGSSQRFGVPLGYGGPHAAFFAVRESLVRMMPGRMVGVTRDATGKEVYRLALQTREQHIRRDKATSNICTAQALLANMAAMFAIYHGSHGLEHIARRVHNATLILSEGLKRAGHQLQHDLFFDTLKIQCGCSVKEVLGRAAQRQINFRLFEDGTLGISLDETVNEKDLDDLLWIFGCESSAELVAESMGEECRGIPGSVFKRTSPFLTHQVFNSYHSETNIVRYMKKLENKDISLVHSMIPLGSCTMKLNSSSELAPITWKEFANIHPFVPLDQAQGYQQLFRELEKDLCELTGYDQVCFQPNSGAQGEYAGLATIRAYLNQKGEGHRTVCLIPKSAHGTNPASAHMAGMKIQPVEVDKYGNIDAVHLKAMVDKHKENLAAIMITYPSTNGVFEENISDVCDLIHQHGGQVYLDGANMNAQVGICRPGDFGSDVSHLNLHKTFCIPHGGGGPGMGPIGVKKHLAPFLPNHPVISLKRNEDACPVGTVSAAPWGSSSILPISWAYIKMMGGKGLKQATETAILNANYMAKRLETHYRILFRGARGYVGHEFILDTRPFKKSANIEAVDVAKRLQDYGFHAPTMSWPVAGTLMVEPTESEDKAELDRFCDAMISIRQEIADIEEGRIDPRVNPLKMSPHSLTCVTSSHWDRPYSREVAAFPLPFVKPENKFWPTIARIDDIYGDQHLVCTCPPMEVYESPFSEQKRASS
# Assay: affinity purification with mass spectrometry; HA-tagged human GLDC expressed in HEK293 cells (1 x 10^8), immunoprecipitated with anti-HA, desalted, bound proteins analysed by MS
binder,measurement,value
B1,binding,binds
